# Source: publication PMC7819943, “Rice protein-binding microarrays: a tool to detect cis-acting elements near promoter regions in rice”
# Protein sequences, listed by entry. Tags and fused reporters are not part of them.
# UniProt Q0JBA9, entry or part of it: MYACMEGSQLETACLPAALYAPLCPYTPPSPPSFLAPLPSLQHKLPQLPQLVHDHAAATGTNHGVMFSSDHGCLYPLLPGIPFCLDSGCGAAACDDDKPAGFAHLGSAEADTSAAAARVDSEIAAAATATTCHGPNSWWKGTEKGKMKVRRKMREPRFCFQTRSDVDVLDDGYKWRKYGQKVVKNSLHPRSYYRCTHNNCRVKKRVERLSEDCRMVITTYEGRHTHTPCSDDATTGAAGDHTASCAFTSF
# This is one part of the list.
# Biological target: OsWRKY34 (Oryza sativa, UniProt Q0JBA9 1-250)
# Assay: protein-binding microarray (RPBM); PBS, 2% BSA, 51.3 ng/ul salmon testes DNA, 50 uM zinc acetate, 200 nM TF, 25 C, 1 h; high values mean tight binding
# Details: protein: recombinant; tags: N-terminal polyhistidine and DsRed monomer fusion (pET32a); label: CyDye5-dUTP incorporated in the synthesized complementary strand; 3' TTTTT single-stranded linker to array surface; dsDNA, one strand shown
# In short: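 An Axon 4000B scanner gave the binding signal as per-feature fluorescence intensity in arbitrary units. This followed washing of a custom Agilent array that had been incubated for 1 h at 25 °C with 200 nM protein in PBS, 2% BSA, salmon testes DNA and 50 µM zinc acetate. The proteins were transcription factors fused at the N-terminus to polyhistidine and DsRed, expressed in E. coli BL21-CodonPlus and purified on Ni–NTA.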
row,Sequence,binding signal
1,GGGGTCGGGGTGGGAGAGGGAGGCTACACTACAGCAGCAGCGGAGTCACCTAGTGCAG,11100 fluorescence intensity (a.u.)
2,TTCGTCCTTTAATTGCTTTCCTGTTGCCAGCTTGCTTTATCGGAGTCACCTAGTGCAG,9830 fluorescence intensity (a.u.)
3,ACTCAGCACGGCATCCGCCGCTCTACTCCTGGACCGACCGCGGAGTCACCTAGTGCAG,8320 fluorescence intensity (a.u.)
4,AACTTAAATTTGTTATTCCCCGGCTCTTAGTCGGCACAAACGGAGTCACCTAGTGCAG,8210 fluorescence intensity (a.u.)
5,CTTTTTTTTGTTTTTGACCTATTGTACATTCCGTTTCCAGCGGAGTCACCTAGTGCAG,8310 fluorescence intensity (a.u.)
6,ATATACGTACTCCCTGTGTTCTATAATAAGTTTATTTTTACGGAGTCACCTAGTGCAG,8810 fluorescence intensity (a.u.)
7,CACTACCGGATCCGTGGCCACTATGCGTGGGGAGGGCGGTCGGAGTCACCTAGTGCAG,9030 fluorescence intensity (a.u.)
8,CAGTTAGACTTTTCCCTGACTTTTAGCATCAGTTCCTCGCCGGAGTCACCTAGTGCAG,8560 fluorescence intensity (a.u.)
9,TTCTGGTTCTTTATGTTAGGTGTGGTTGAGCCTTATATTTCGGAGTCACCTAGTGCAG,8600 fluorescence intensity (a.u.)
10,TAACCTTTTCTTTCTTGTTACTTGTTTTTTTTTTCTTCTTCGGAGTCACCTAGTGCAG,9700 fluorescence intensity (a.u.)
11,GTCACGCACTGAAACTTGTCCCCTTTTACCCCATCTCTTTCGGAGTCACCTAGTGCAG,9590 fluorescence intensity (a.u.)
12,CTTCGCCATGGCCACCGGTGCCCGCCTCTCTCCTATCCCCCGGAGTCACCTAGTGCAG,9240 fluorescence intensity (a.u.)
13,CTCTCCGTCGAGGAGCATTGTACGACTACCTGTGGCTCCGCGGAGTCACCTAGTGCAG,8450 fluorescence intensity (a.u.)
14,CAACCCCATCAAACTAATTGTTAGTATTTCTTTTAGTCCTCGGAGTCACCTAGTGCAG,8160 fluorescence intensity (a.u.)
15,CGGTTCTTTTTTCATTAAGATGCAGATTTTATCTCGGTTTCGGAGTCACCTAGTGCAG,9420 fluorescence intensity (a.u.)
16,CCAAATCCACAGCTGAATCAAACGCACACCACACAGTCTACGGAGTCACCTAGTGCAG,8820 fluorescence intensity (a.u.)
17,ACTGCTCTTTCCCCTGCTCCAAGTATTTCTCTCTCGTTCTCGGAGTCACCTAGTGCAG,11300 fluorescence intensity (a.u.)
18,TCCAGCCCAAACACATTCCAACACCGCAATTCTACATTATCGGAGTCACCTAGTGCAG,9260 fluorescence intensity (a.u.)
19,CGTTTGCACTCTGCTCCACTTGGTATTATCAGTTTTTGTTCGGAGTCACCTAGTGCAG,9420 fluorescence intensity (a.u.)
20,CTGCAGCTATCGATTTCACTCTCCATTCGACTTCAATCAACGGAGTCACCTAGTGCAG,10200 fluorescence intensity (a.u.)
21,GTGTGAACCAGAATATTTCGCCCTAATCATCAGTTTTCCACGGAGTCACCTAGTGCAG,9050 fluorescence intensity (a.u.)

row,Sequence,binding signal
1,TTGCTCGTATTTTCTCCCCAAAGTCATCAACTTTGATGCTCGGAGTCACCTAGTGCAG,19000 fluorescence intensity (a.u.)
2,AGGTATCGTGATGGTGGTAACAATGGTTCAAATTTTATAACGGAGTCACCTAGTGCAG,8350 fluorescence intensity (a.u.)
3,GCTTGATGTCGTACTACGTAGATCCTCGTACCAACGTACCCGGAGTCACCTAGTGCAG,8950 fluorescence intensity (a.u.)
4,CTTGCGAGTTGTTCGCCTCTTGTTCTGCTTCTACCTATCACGGAGTCACCTAGTGCAG,14000 fluorescence intensity (a.u.)
5,TCTGGGTATCCTCTGTTATGTCATCTTCACCTCCATTTGGCGGAGTCACCTAGTGCAG,8690 fluorescence intensity (a.u.)
6,CTCAATTTTTCGTCGTCATCAGCATCGAATCCGTCCTCCGCGGAGTCACCTAGTGCAG,11000 fluorescence intensity (a.u.)
7,TGCGGGTTGTTTTGATTGACAATTTAGTGTTGGTGTTGTTCGGAGTCACCTAGTGCAG,9980 fluorescence intensity (a.u.)
8,CATTACCGCCACCTTCGATGCCGCCGCCTGCCGCTACCCGCGGAGTCACCTAGTGCAG,8580 fluorescence intensity (a.u.)
9,GCCCACTTGTATATCTCCCGCGCGCCACCACCACCATCGCCGGAGTCACCTAGTGCAG,12600 fluorescence intensity (a.u.)
10,CCAACTTTTCCGTCACATCGTTTCAATTTTAACCAAACTTCGGAGTCACCTAGTGCAG,8170 fluorescence intensity (a.u.)
11,TCACATTGTTCCTTTCCTCCAATGTTTTGTTTCATCAACTCGGAGTCACCTAGTGCAG,8350 fluorescence intensity (a.u.)
12,TTCCCATTTATTGGCATCCACCTACCGCTCATCATCTTCTCGGAGTCACCTAGTGCAG,8640 fluorescence intensity (a.u.)
13,CTTGGGGCTGTTTCTGTTTGATACCAAATAACCAAAACTTCGGAGTCACCTAGTGCAG,8600 fluorescence intensity (a.u.)
14,ATATAACATATACAGAGACCATGTTTGTTTCTTTTTTTTTCGGAGTCACCTAGTGCAG,8440 fluorescence intensity (a.u.)
15,ATGCCTCACCACACCCTTGTTCCTCTCCTCCCAACAATTTCGGAGTCACCTAGTGCAG,8640 fluorescence intensity (a.u.)
16,CTCGCAATTTTTCCCCATCACCACAGCACCACTAGACGACCGGAGTCACCTAGTGCAG,9600 fluorescence intensity (a.u.)
17,CCAGATCGGTAGCTGTCTCGTCGCCGTCCCCGATCCTCCTCGGAGTCACCTAGTGCAG,8260 fluorescence intensity (a.u.)
18,GAGATGCCTTTTTTAAAAAACTTTAACAGTGATAAGTTTCCGGAGTCACCTAGTGCAG,8240 fluorescence intensity (a.u.)
19,GTCGCCGATTTTATAAAACTTCATCTTCTCCGAGACCTTACGGAGTCACCTAGTGCAG,8120 fluorescence intensity (a.u.)
20,AAGAAAGGCAGAAACAAAGCGGTTGCATCATTCTTTAACTCGGAGTCACCTAGTGCAG,8270 fluorescence intensity (a.u.)
21,AATTCCTACTTTCATGTTCAGTGTTTTTAATGGTCTATGTCGGAGTCACCTAGTGCAG,10800 fluorescence intensity (a.u.)
